Test results reported in patent US12351855B2, “Bioelectronic circuits, systems and methods for preparing and using them” (priority 2019, dated 2025).

Tests used:
[1] = STM single-molecule conductance measurement between functionalized Pd probe and substrate; conditions: for highest conductance feature / maximum conductance: wild type streptavidin captured between electrodes functionalized with thio-biotin (20)
[2] = Conductance of biotinylated ϕ29 polymerase wired into streptavidin-functionalized palladium junction; conditions: thiolated streptavidin on Pd electrodes, 50 mV bias

Streptavidin: wild type (lacking surface thiols) streptavidin from Sigma Aldrich
highest conductance feature / maximum conductance ([1]; listed as apo-streptavidin): ~7 nS
highest conductance feature / maximum conductance ([1]; listed as streptavidin): 6.8 nS
highest conductance feature / maximum conductance ([1]; listed as wild type streptavidin): ~7 nS

Thiolated-streptavidin: streptavidin with an average of 2.5 thiols per tetramer, from ProteinMods
maximum conductance ([1]; thiolated streptavidin (biotin bound) directly bonded to the metal electrodes): 0.56 nS
high conductance state ([1]; thiolated streptavidin attached to substrate, biotinylated probe (single biotin-mediated contact)): ~7 nS

mono-biotinylated polymerase: exonuclease-inactivated ϕ29 polymerase with N-terminal his-tag and one biotinylated Avitag (SEQ ID NO: 5) (MGSSHHHHHHSSGLVPRGSGLNDIFEAQKIEWHEGASS; biotinylated Avitag)
highest conductance feature [2]: about 0.7 nS
